Results deposited as PubChem BioAssay AID652272 (Drosophila RNAi Screening Center, 2013).

Purpose: 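Finding fly genes that regulate Hedgehog signal transduction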 (primary screen)
Cell system: Drosophila clone 8 (Cl8) cells
Knock-down reagent: long dsRNA against Drosophila genes
Read-out: 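Firefly light from a Hedgehog-responsive ptc promoter reporter and Renilla reference light, both read on a plate reader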
Reading the numbers: firefly Hh reporter signal: higher = more ptc reporter light; Renilla reference signal: higher = more Renilla control light
Active means: 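Hit when the z-score averaged over two replicates is under -2 or over +3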
Meaning of the calls: active = hit: reporter lowered or raised; inactive = not a hit
The deposit covers about 21,000 reagents; below is an unselected part of those that have a named target and a result. Over the whole deposit, 503 (2.4%) are marked active. 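Raw plate light values, not normalised; calls rest on replicate z-scores that were not deposited; hits include reporter decreases as well as increases.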 Unmarked entries are inactive. Names joined by + are all predicted targets of the reagent. Reagent sequences are not shown. Not stated in the record: the amount of reagent, the time to read-out.

| gene | amplicon | firefly Hh reporter signal, replicate 1 | firefly Hh reporter signal, replicate 2 | firefly Hh reporter signal, replicate 3 | Renilla reference signal, replicate 1 | Renilla reference signal, replicate 2 |
| --- | --- | --- | --- | --- | --- | --- |
| Gfrl | DRSC15196 | 4.89e5 | 68512 | – | 25730 | 1720 |
| Gfrl | DRSC15197 | 1.48e5 | 1.13e5 | – | 6884 | 5357 |
| Gfrl | DRSC15199 | 7.39e5 | 1.11e5 | – | 38365 | 2637 |
| Gfrl | DRSC15565 | 1.21e5 | 68304 | – | 4849 | 2892 |
| Gfrl | DRSC15719 | 4.87e5 | 70907 | – | 26844 | 1940 |
| Grik | DRSC15846 | 88856 | 1.02e5 | – | 5014 | 4076 |
| Grik | DRSC15847 | 5.75e5 | 1.05e5 | – | 28917 | 2425 |
| dap | DRSC07601 | 79035 | 66420 | – | 2813 | 2519 |
| Rad17 | DRSC16811 | 51184 | 86752 | – | 1796 | 2276 |
| Jon74E | DRSC10617 | 1.13e5 | – | – | 1825 | 3361 |
| CG7512 | DRSC10863 | 34576 | 40244 | 51584 | 3115 | 2841 |
| CG42288 | DRSC06381 | 77547 | 78308 | – | 2262 | 5056 |
| Ipk2 | DRSC00357 | 1.10e5 | 90316 | – | 2317 | 2148 |
| tos | DRSC03624 | 59778 | 24342 | – | 2163 | 1051 |
| Pi3K59F | DRSC04640 | 58709 | 47036 | – | 2434 | 1920 |
| Rab35 | DRSC20691 | 1.31e5 | 69459 | – | 3091 | 1993 |
| CG33308 | DRSC01419 | 83108 | 1.95e5 | – | 2397 | 8736 |
| Obp99c | DRSC16262 | 92413 | 1.08e5 | – | 2390 | 3163 |
| Tgt | DRSC00672 | 75619 | 56570 | – | 3272 | 2672 |
| HP1Lcsd | DRSC03999 | 1.49e5 | 2.15e5 | – | 3670 | 9846 |
| CG14708 | DRSC14930 | 65276 | 1.12e5 | – | 1906 | 6199 |
| RpS25 | DRSC16837 | 49744 | 74682 | – | 1997 | 2693 |
| CR34254 | DRSC09562 | 2.60e5 | – | – | 5392 | – |
| CG15831 (retired record) | DRSC20816 | 1.20e5 | 2.04e5 | – | 4581 | 9210 |
| rod | DRSC17047 | 84944 | 1.90e5 | – | 2691 | 7357 |
| CG1360 | DRSC06406 | 74116 | 40053 | – | 1867 | 3931 |
| CG4676 | DRSC06879 | 99194 | 66864 | – | 2923 | 5401 |
| nrv3 | DRSC03097 | 6.11e5 | 1.23e5 | – | 5416 | 5416 |
| CG32679 | DRSC17644 | 5.74e5 | 2.16e5 | – | 31542 | 4521 |
| Cyp9h1 | DRSC07391 | 77248 | 45176 | – | 1901 | 3185 |
| Obp57e | DRSC05891 | 1.09e5 | 2.69e5 | – | 3162 | 10976 |
| CG17059 | DRSC06654 | 1.17e5 | 63224 | – | 3243 | 4928 |
| aspr | DRSC20689 | 77498 | 2.66e5 | – | 3043 | 10016 |
| aspr | DRSC20690 | 91482 | 2.01e5 | – | 3472 | 7954 |
| CG1172 + Or83a | DRSC12357 | 52236 | 99322 | – | 1830 | 2913 |
| Yif1 | DRSC15817 | 56951 | 1.20e5 | – | 2128 | 3462 |
| Cht7 | DRSC08538 | 83108 | 53416 | – | 2938 | 2448 |
| lectin-46Ca | DRSC06612 | 90581 | 7.53e5 | 79450 | 3437 | 41593 |
| CG32119 | DRSC09248 | 7.65e5 | 4.00e5 | 1.47e5 | 6697 | 9050 |
| eIF1 | DRSC08520 | 1.10e5 | 40314 | – | 4256 | 3497 |
| CG18558 | DRSC00525 | 1.65e5 | 1.21e5 | – | 3273 | 2633 |
| CG2528 | DRSC03724 | 95238 | 57011 | – | 2491 | 5360 |
| Prp5 | DRSC19975 | 1.41e5 | 2.63e5 | – | 5078 | 12806 |
| CG15170 | DRSC02471 | 58592 | 40857 | – | 1616 | 3264 |
| CG31730 | DRSC01308 | 5.20e5 | 2.29e5 | – | 26497 | 8605 |
| CG13426 | DRSC06388 | 1.02e5 | 52162 | – | 2470 | 2152 |
| CG3662 | DRSC00626 | 90472 | 61290 | – | 3655 | 2528 |
| CG10435 | DRSC14246 | 93115 | 69622 | – | 4326 | 3009 |
| Pxt | DRSC17040 | 5.77e5 | 95057 | – | 27146 | 3236 |
| Ldsdh1 | DRSC18219 | 1.19e5 | 3.66e5 | – | 4717 | 13511 |
| CG8003 | DRSC10946 | 74132 | 92103 | – | 3369 | 3397 |
| CG12170 | DRSC12199 | 1.48e5 | 8.61e5 | 1.14e5 | 5763 | 50964 |
| CG16779 | DRSC15153 | 47450 | 1.00e5 | – | 1606 | 2868 |
| lab | DRSC12627 | 64506 | 77124 | – | 2610 | 2289 |
| CG11425 | DRSC11657 | 70901 | 80010 | – | 2902 | 1318 |
| CG3071 | DRSC18526 | 1.42e5 | 1.24e5 | – | 3931 | 4349 |
| trpl | DRSC06728 | 1.13e5 | 65717 | – | 2618 | 6038 |
| trpl | DRSC06729 | 1.53e5 | 70120 | – | 3537 | 2426 |
